In patent US5516790A, “Synthesis and application of alkyl-substituted dibenzofurans as antitumorigenic agents” (Texas A&M University System Technology Licensing Office, priority 1994, dated 1996):
Read-outs that look alike come from different tables or passages of the source. The name of at least one read-out is uncertain.

System: 52-kDa protein
Format: cell-based, human
Conditions: 2880 min
Protocol: On day 0, the media was removed and the cells were rinsed two times with PBS. […] The cells were allowed to incubate for 48 h. […] After 6 h, the media was removed, 10 μl was counted and the remaining media was used for analysis of secreted proteins.
The secreted proteins were analyzed by sodium dodecyl sulfate (SDS) polyacrylamide gel electrophoresis; 30 μl of the media was mixed with an equal volume of buffer containing SDS, β-mercaptoethanol, glycerol, Tris and bromophenol blue. The samples were heated for 2 minutes in a boiling water bath and 50 μl of each sample was loaded onto a 1.5 mm thick 12% acrylamide slab gel (containing 0.075% bisacrylamide) with a 3% stacking gel (containing 0.15% bisacrylamide). The gels were run at […] overnight and processed for fluorography (using Enhance: Dupont) and exposed to Kodak X-OMAT film for 10 days at -80° C. The molecular weights of the proteins were estimated by their mobility relative to a set of standard proteins with known molecular weights. […]

## Cc1cc(Cl)cc2c1oc1cc(Cl)cc(Cl)c12 [MCDF, 6-methyl 1,3,8-trichlorodibenzofuran]
17β-estradiol + MCDF
  Protein Secretion, 52-kDa: 87 % of Control
MCDF alone (100 nM)
  Protein Secretion, 52-kDa: 96 % of Control
